These are yes or no findings as the source states them, for the method shown. In cells and extracts the contact can be indirect. Some binding calls cover weakened binding; strength is not graded here. Where a sequence is shown, tags or fusion partners need not be part of it.
What was measured:
[1] = target: TASOR-ΔPARP-Flag (TASOR short isoform deleted of its PARP-like domain, 106–319 aa) (UniProt Q9UK61); assay: co-IP; anti-Flag M2 affinity gel immunoprecipitation of TASOR-Flag (WT or ΔPARP) expressed in HeLa cells with or without HA-Vpx (WT or mutant); same lysis and wash buffers; HA-Vpx, endogenous DCAF1 and endogenous MPP8 revealed by western blot (Figs 1B, 2D, 3E, 5C, S6B)
[2] = target: TASOR-Flag (TASOR short isoform, 1512 amino-acids) (UniProt Q9UK61); assay: as above
SAMHD1-Flag (human) = SAMHD1-Flag (human) (UniProt Q9Y3Z3); assay: co-IP; anti-Flag immunoprecipitation of SAMHD1-Flag expressed in HeLa cells with or without HA-Vpx WT; endogenous DCAF1 revealed by western blot (Fig 1C)

Protein sequences, listed by entry. Tags and fused reporters are not part of them. Lines headed by an entry give the natural chain unless they say otherwise; changes in a name come on top. Chains listed by the source or under a name are the forms on record and can include a tag or linker.
TASOR-ΔPARP-Flag (TASOR short isoform deleted of its PARP-like domain, 106–319 aa) (Q9UK61, form named): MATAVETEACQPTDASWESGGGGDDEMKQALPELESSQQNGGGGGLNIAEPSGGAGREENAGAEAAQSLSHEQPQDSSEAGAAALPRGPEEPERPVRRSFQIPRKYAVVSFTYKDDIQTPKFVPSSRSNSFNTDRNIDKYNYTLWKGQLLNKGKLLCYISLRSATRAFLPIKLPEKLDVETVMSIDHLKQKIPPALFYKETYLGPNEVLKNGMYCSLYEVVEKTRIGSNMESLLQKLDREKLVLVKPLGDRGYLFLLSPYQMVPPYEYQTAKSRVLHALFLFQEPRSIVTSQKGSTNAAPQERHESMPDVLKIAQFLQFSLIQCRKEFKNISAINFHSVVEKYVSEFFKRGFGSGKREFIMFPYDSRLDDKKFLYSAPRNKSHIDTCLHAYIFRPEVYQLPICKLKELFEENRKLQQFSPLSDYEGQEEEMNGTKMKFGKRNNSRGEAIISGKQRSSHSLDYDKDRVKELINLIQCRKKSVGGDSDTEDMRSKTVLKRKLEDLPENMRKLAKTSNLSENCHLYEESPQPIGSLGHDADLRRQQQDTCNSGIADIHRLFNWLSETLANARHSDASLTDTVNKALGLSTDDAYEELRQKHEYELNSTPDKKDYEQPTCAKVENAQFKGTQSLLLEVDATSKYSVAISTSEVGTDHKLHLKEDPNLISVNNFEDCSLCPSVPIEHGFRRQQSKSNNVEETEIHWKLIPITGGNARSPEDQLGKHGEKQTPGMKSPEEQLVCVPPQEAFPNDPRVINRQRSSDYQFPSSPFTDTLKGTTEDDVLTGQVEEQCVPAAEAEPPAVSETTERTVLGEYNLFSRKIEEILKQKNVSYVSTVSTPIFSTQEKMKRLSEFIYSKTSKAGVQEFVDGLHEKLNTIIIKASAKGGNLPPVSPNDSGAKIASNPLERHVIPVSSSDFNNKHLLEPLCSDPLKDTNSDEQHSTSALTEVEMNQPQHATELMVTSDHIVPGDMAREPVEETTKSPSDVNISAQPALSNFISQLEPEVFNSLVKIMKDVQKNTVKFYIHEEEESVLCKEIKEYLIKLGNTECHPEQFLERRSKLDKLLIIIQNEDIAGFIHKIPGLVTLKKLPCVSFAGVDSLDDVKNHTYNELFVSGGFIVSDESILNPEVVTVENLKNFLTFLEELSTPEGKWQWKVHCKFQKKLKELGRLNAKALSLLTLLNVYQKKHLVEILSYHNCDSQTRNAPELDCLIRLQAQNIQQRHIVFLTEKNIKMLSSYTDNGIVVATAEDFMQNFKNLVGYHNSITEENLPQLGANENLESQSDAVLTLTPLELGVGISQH
TASOR-Flag (TASOR short isoform, 1512 amino-acids) (Q9UK61, form named): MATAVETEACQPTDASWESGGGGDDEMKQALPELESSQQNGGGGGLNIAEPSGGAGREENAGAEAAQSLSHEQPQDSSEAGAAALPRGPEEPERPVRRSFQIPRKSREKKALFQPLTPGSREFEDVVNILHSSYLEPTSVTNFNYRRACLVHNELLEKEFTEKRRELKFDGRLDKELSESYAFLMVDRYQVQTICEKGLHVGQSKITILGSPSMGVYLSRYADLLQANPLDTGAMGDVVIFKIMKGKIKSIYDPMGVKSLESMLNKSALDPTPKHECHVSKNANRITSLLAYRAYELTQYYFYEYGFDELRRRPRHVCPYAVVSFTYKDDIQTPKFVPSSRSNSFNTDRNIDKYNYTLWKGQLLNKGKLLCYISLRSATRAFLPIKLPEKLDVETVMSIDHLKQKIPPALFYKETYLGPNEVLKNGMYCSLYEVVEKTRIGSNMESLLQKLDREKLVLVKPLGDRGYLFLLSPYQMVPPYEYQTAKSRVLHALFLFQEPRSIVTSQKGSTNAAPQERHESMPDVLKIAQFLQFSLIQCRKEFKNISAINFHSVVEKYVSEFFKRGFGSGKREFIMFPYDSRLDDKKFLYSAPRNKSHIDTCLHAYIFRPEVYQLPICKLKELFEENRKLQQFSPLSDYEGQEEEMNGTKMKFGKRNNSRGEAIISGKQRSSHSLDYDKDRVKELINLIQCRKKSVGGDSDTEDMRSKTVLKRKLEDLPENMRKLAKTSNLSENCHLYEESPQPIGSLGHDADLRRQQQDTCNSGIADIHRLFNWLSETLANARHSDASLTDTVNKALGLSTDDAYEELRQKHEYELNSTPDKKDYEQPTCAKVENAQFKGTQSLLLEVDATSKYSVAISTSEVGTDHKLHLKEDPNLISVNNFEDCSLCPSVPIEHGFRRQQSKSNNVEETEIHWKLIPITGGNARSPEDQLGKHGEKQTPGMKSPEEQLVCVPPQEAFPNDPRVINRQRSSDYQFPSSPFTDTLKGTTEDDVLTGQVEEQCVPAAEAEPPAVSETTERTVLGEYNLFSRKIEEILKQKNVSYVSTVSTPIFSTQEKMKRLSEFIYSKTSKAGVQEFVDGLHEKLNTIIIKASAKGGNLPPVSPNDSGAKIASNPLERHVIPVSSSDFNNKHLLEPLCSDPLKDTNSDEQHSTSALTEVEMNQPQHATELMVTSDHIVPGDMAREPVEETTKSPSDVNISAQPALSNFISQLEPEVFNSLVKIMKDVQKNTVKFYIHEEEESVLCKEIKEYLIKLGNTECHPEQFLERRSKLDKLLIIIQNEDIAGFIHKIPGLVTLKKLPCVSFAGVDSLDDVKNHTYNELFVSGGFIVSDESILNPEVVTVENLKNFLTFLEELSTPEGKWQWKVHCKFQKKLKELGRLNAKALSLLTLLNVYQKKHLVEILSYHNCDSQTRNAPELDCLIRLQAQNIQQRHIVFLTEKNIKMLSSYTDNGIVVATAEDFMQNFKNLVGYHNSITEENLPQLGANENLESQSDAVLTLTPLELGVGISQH
UniProt Q9Y3Z3: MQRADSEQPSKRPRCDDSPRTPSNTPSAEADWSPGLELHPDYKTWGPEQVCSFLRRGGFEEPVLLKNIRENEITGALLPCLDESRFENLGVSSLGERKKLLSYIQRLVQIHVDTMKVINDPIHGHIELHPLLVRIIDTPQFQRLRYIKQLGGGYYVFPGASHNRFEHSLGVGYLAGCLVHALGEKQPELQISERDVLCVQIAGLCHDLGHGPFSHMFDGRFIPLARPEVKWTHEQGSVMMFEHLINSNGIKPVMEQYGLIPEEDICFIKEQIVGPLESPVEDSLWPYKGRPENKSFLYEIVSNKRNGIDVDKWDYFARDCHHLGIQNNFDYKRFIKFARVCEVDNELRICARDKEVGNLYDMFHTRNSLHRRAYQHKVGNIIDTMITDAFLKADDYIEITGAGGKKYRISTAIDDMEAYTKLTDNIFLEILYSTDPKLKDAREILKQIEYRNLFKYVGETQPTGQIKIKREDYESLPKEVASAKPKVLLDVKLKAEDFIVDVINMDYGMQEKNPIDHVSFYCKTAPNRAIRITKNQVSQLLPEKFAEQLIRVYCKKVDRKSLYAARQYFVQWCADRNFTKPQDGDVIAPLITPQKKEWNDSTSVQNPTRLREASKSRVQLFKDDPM

Measured: binding

B1: HA-Vpx HIV-2.Gh1 WT (protein, UniProt P18045 1-112)
chain: MTDPRERVPPGNSGEETIGEAFEWLDRTIEALNREAVNHLPRELIFQVWQRSWRYWHDDQGMSPSYTKYRYLCLMQKAVFIHFKRGCTCLGGGHGPGGWRSGPPPPPPPGLV
binds: all assays above

Reference: publication PMC8570500
